From US12121500B2, “Inhibitors of Bunyaviridae and uses thereof” (priority 2020, dated 2024)
Some results were stated once for a whole list of compounds, not compound by compound. At least one structure is not confirmed: it was looked up by name or label, or the drawing left a doubt.

Test system: RVFV
Type: cell-based, Rift Valley Fever Virus

Row | Structure (SMILES) | EC50 [µM]
1 | CCc1cccc(N=C(C)c2c(C)cc(=O)n(O)c2O)c1 [Compound 518] | 14 to 20
2 | Cc1ccc(/C=C/C(=O)c2ccccc(=O)c2O)cc1 [Compound 340] | 25 to 55
